Test results: PMC12905490, “Identification and functional characterization of two CXCL17 paralogs from zebrafish” (Biochemical Journal, 2026)
Results are given in words; binding and its absence hold for the method and conditions named. In cells and extracts the contact can be indirect. Some binding calls cover weakened binding; strength is not graded here. For some assays here: Sequences can lack the tags named with a protein.

The chains behind the UniProt entries cited, without tags or fusion partners.
UniProt P32121: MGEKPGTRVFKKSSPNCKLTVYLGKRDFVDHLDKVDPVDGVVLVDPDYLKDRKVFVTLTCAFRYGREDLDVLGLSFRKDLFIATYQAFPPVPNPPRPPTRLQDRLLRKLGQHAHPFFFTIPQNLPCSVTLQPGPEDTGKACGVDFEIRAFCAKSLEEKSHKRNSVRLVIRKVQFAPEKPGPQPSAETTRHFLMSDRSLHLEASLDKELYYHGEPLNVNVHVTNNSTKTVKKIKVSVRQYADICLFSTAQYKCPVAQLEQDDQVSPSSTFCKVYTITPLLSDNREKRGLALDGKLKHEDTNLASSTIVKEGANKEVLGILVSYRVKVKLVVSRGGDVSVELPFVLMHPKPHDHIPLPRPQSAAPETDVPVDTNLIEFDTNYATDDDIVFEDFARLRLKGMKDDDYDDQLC

B1: 6 × His-Dr-[desC3]CXCL17 (domain or fragment, UniProt B0S594 26-106)
chain: RPQEGKSDKSAEVKGHAMPRKCNCQVRGTALDRNCVCEMPHKSRPTLNPEQKNMCLKKKIKTFRKCLQFMGANKKIAKGAS

Tests used:
[1] = biological target: Dr-GPR25-LgBiT (zebrafish (Danio rerio)); assay: split reporter; NanoBiT-based β-arrestin recruitment in living HEK293T cells coexpressing Dr-GPR25-LgBiT and SmBiT-ARRB2; bioluminescence after addition of recombinant zebrafish CXCL17 or CXCL17-like; serum-free DMEM plus 1% BSA
[2] = biological target: sLgBiT-Dr-GPR25 (zebrafish (Danio rerio)); assay: split reporter; NanoBiT-based competition binding: constant 6 × His-SmBiT-Dr-CXCL17-like tracer and varied competitors on living HEK293T cells expressing sLgBiT-Dr-GPR25; serum-free DMEM, 0.1% BSA, 0.01% Tween-20, room temperature ~1 h; only the binder purified

Molecule	binding [1]	binding [2]
SmBiT-ARRB2 (from UniProt P32121 1-409)	binds	
B1		no binding
